# Laboratory results published in PubChem BioAssay AID540276 (National Center for Advancing Translational Sciences (NCATS), 2011).
# Several values for one entry are separate records, joined by “and”; a condition that tells them apart may be missing. Equal entries are not always repeated. Among all 300,000 compounds or so, about 5,400 (1.8%) were called active. The inconclusive results got no clear call from the source; some entries with a clear call stand among them for comparison. The call rests on the fitted dose curve; tested in HEK293 cells. Potencies beside an inconclusive call are fits to weak or partial responses and may not hold up.
# Assay: qHTS for inhibitors of binding or entry into cells for Marburg Virus
# Conditions: Marburg virus pseudotyped entry inhibition, cell reporter; activity change, negative = inhibition: at 37.8 µM (top of the series) unless noted
# On the % scale 0 is the no-effect control and ±100 the full control effect; potency means the concentration at half of the fitted maximal effect.
Structure (SMILES),Potency,"activity change, negative = inhibition"
COC(=O)c1ccc(S(=O)(=O)NCc2cccc(OC)c2)n1C,"inconclusive: 8.91 µM [activator, partial curve, poor fit]",
COc1ccc(NC(=O)c2ccc3ccccc3c2OC)cc1,"inconclusive: 5.01 µM [inhibitor, partial curve]",
Cc1c(C(=O)c2ccc(F)cc2)c2ccccn2c1CCc1ccccn1,"inconclusive: 35.5 µM [inhibitor, single point]",
Cc1c(C)n(CC(O)CN2CCCCCC2)c2ccccc12 (centres undefined),,inactive: -7.34% [at 46.1 µM]
CN(c1ccccc1)S(=O)(=O)c1cccc(C(=O)NCCc2ccc(O)c(O)c2)c1,,inactive: 12.1% [at 46.1 µM]
CCNC(=S)Nc1cc(OCC)c(NC(=O)c2cccs2)cc1OCC,"inconclusive: 5.01 µM [activator, single point]",
Cc1ccc(-c2cc(C(=O)Nc3cccnc3)[nH]n2)c(O)c1C,"inconclusive: 35.5 µM [inhibitor, single point]",
O=c1c2c(n3nnnc3n1Cc1ccccc1)-c1ccccc1CC21CCCC1,"inconclusive: 7.08 µM [activator, full curve, poor fit]",
CCOc1cccc(OCCOc2ccccc2[N+](=O)[O-])c1,"inconclusive: 1.26 µM [activator, full curve, poor fit]",
CNC(=O)C12N=CNN=C1N(C)C(=O)N2C (centres undefined),"inconclusive: 31.6 µM [activator, single point]",
O=C(c1ccccc1)c1nccc2ccccc12,"inconclusive: 35.5 µM [inhibitor, single point]",
CCC(C)NC(=O)C1c2ccccc2C(=O)N1Cc1ccc(F)cc1 (centres undefined),"inconclusive: 3.55 µM [inhibitor, full curve, poor fit]",
CC(C)Oc1ccccc1C1CC(=O)Nc2cc3c(cc21)OCO3 (centres undefined),active: 6.51 µM,
COc1ccccc1OCCCn1cc(C(=O)C2CC2)c2ccccc21,"inconclusive: 0.112 µM [inhibitor, full curve, poor fit]",
CCCCCCC(O)(c1ccc(OC)cc1)C(CN1CCOCC1)c1ccccc1 (centres undefined),"inconclusive: 3.16 µM [inhibitor, partial curve, poor fit]",
COc1ccc(S(=O)(=O)NC(CC(=O)NCc2ccco2)C(C)C)cc1 (centres undefined),,inactive: 13.3%
O=C(NCc1cccs1)NC1CCCCC1,"inconclusive: 6.31 µM [activator, single point]",
CC(C)(C)c1ccc(/C=C/C(=O)N2CCOCC2)cc1,"inconclusive: 2.51 µM [activator, single point]",
Nc1ccc2nc(SCC(=O)N3CCOCC3)sc2c1,"inconclusive: 3.55 µM [activator, single point]",
CN(CCOc1ccccc1)C(=O)c1ccc2c(=O)n3c(nc2c1)CCC3,"inconclusive: 20 µM [activator, single point]",
COc1ccc(C(=O)Nc2cccc(-c3ccc(N4CCOCC4)nn3)c2)cc1OC,,inactive: -21.1%
Fc1ccccc1NC(=S)N1CCN(c2ccccn2)CC1,,inactive: -4.37%
O=C(Nc1ccc(CN2CCCCC2)cc1)c1cccc(F)c1,"inconclusive: 8.91 µM [activator, partial curve]",

Structure (SMILES),Potency,"activity change, negative = inhibition"
CC(=O)N1CCc2cc(S(=O)(=O)NC(Cc3ccccc3)C(=O)Nc3ccc(C)cc3C)ccc21 (centres undefined),,inactive: -25.4% [at 46.1 µM]
O=C(NC(Cc1ccccc1)c1ccc2c(c1)OCCCO2)c1ccccc1F (centres undefined),"inconclusive: 0.517 µM [activator, single point]",
C(=C\c1ccccc1)/CSc1nc2ncccc2[nH]1,"inconclusive: 3.55 µM [activator, partial curve, poor fit]",
CC(=O)c1ccccc1NC(=O)COC(=O)CCCN1C(=O)c2cccc3cccc(c23)C1=O,"inconclusive: 3.16 µM [activator, single point]",
Cc1cccc(C)c1N(CC(=O)NCc1ccco1)C(=O)CNS(=O)(=O)c1ccc(F)cc1,active: 8.91 µM,
COC(=O)c1ccc(NC(=S)NC2CC3CCC2C3)cc1 (centres undefined),"inconclusive: 0.562 µM [activator, full curve, poor fit]",
Cc1ccc2[nH]c(=O)c(COC(=O)C3CCCO3)cc2c1 (centres undefined),"inconclusive: 3.55 µM [inhibitor, single point]",
COC(=O)C1C(=O)C=C(Nc2ccc(F)cc2F)CC1c1ccc(OC)cc1 (centres undefined),"inconclusive: 5.62 µM [inhibitor, single point]",
Cc1ccc(C)c(Cn2c(=O)n(-c3ccc(F)cc3)c(=O)c3sc4ccccc4c32)c1,,inactive: -11.6% [at 46.1 µM]
CCOc1ccc(C2=Nn3c(nnc3-c3ccccc3OC)SC2)cc1,active: 0.291 µM,
O=C(C1CC1)N1CCc2sccc2C1c1ccc(Cl)cc1 (centres undefined),"inconclusive: 35.5 µM [inhibitor, partial curve, poor fit]",
COc1cccc(-c2nc(SCC(=O)NCC3CCCO3)c(-c3ccc(Cl)cc3)[nH]2)c1 (centres undefined),"inconclusive: 0.708 µM [inhibitor, full curve, poor fit]",
COc1cccc(COC(=O)C2CCN(S(=O)(=O)c3ccc(C)cc3)CC2)c1OC,,inactive: -14.7%
CN(C)CCN(C(=O)c1ccc(C(=O)c2ccccc2)cc1)c1nc2cc3c(cc2s1)OCO3,"inconclusive: 15.8 µM [inhibitor, single point]",
O=C(N/N=C/c1ccc(OC(F)F)cc1OC(F)F)NC1CCCCC1,,inactive: 1.63% [at 46.1 µM]
Cc1ccccc1Nc1c(-c2ccncc2)nc2ccc(Br)cn12,"inconclusive: 14.1 µM [inhibitor, single point]",
O=C(Nc1ccc(F)cc1F)NC1CCN(Cc2c(F)cccc2Cl)CC1,"inconclusive: 14.1 µM [inhibitor, single point]",
COc1ccc(C(=O)Nc2c(Cl)cc(Cl)cc2C(=O)N2CCC(C)CC2)cc1,"inconclusive: 4.47 µM [activator, full curve, poor fit]",
COc1ccccc1CN1CCN(Cc2nc(-c3ccccc3)no2)CC1,"inconclusive: 11.2 µM [inhibitor, partial curve, poor fit]",
COc1ccc(NC(=O)CN2C(=O)C(c3ccc(C)cc3)=NC23CCCCCC3)cc1Cl,"inconclusive: 6.31 µM [inhibitor, full curve]",
CN1CCN(c2ccc(NC(=O)c3ccc4c(c3)OCCO4)cc2)CC1,"inconclusive: 35.5 µM [inhibitor, single point]",
O=C(Nc1ccccc1N1CCN(C(=O)c2ccc(Cl)cc2)CC1)c1cc(Br)ccc1Cl,"inconclusive: 20.6 µM [inhibitor, single point]",
COc1ccc(OC)c(/C=N/NC(=O)CNC(=O)c2cccc3ccccc23)c1,"inconclusive: 1.26 µM [inhibitor, single point]",

# Complete entries, looked up by structure.
# COc1ccccc1CN1CCN(Cc2nc(-c3ccccc3)no2)CC1 as listed: Potency: inconclusive: 11.2 µM [inhibitor, partial curve, poor fit]
# Cc1ccc(C)c(Cn2c(=O)n(-c3ccc(F)cc3)c(=O)c3sc4ccccc4c32)c1 as listed: activity change, negative = inhibition: inactive: -11.6% [at 46.1 µM]
# CC(=O)c1ccccc1NC(=O)COC(=O)CCCN1C(=O)c2cccc3cccc(c23)C1=O as listed: Potency: inconclusive: 3.16 µM [activator, single point]
# Cc1ccc2[nH]c(=O)c(COC(=O)C3CCCO3)cc2c1 (centres undefined) as listed: Potency: inconclusive: 3.55 µM [inhibitor, single point]

# (listing goes on)

Structure (SMILES),Potency,"activity change, negative = inhibition"
Cn1c(CN2CCN(C(=O)c3ccc(F)cc3)CC2)nc2cc([N+](=O)[O-])ccc21,"inconclusive: 15.8 µM [inhibitor, single point]",
COc1ccc2nc3ccccc3nc2c1N,"inconclusive: 6.31 µM [activator, single point]",
O=C(O)/C=C/C(=O)Nc1ccc(Oc2ncnc3cc(Cl)ccc23)nc1,,inactive: 15.3% [at 46.1 µM]
COc1ccccc1N=Nc1nc(-c2ccccc2)c(-c2ccccc2)[nH]1,"inconclusive: 28.2 µM [inhibitor, single point]",
O=C(CCCN1CCC(c2ccccc2)C1)c1ccc2c(c1)OCCO2 (centres undefined),"inconclusive: 23.1 µM [inhibitor, single point]",
CCn1c(=N)n(CC(=O)c2ccc(OC)c(OC)c2)c2ccccc21,"inconclusive: 20.6 µM [inhibitor, single point]",
Cc1ccc(CNC(=O)CCc2nnc(Cc3ccc(-c4ccccc4)cc3)o2)o1,,inactive: 3.27% [at 46.1 µM]
COc1ccc2[nH]cc(CCNC(=O)c3ccc([N+](=O)[O-])cc3)c2c1,"inconclusive: 11.2 µM [inhibitor, single point]",
CCC(=O)Nc1cc(C(=O)O)ccc1Sc1ccccc1,,inactive: 10.9% [at 46.1 µM]
CC1(C)Cc2ccccc2C(NNC(=O)c2ccncc2)=N1,,inactive: 2.15% [at 46.1 µM]
Cn1ccnc1C1CCCCN1C(=O)c1cc(COc2ccc(F)cc2Cl)on1 (centres undefined),"inconclusive: 28.2 µM [inhibitor, single point]",
CC(/C=C/C=C/c1ccccc1)=N/NC(=O)C(O)c1ccccc1 (centres undefined),,inactive: -9.77% [at 46.1 µM]
NC(=O)c1ccsc1NC(=O)COC(=O)Cc1ccsc1,,inactive: 3.26%
COc1cccc(-c2noc(-c3ccc4c(c3)OCO4)n2)c1,"inconclusive: 35.5 µM [inhibitor, single point]",
Cc1c(C(=O)N2CCN(c3ccc(F)cc3)CC2)sc2ncnc(N3CCN(c4ccccn4)CC3)c12,"inconclusive: 20 µM [inhibitor, partial curve, poor fit]",
CC(=O)c1ccc(NC(=O)c2ccc(N3CCCC3=O)cc2)cc1,,inactive: -9.96% [at 46.1 µM]
c1cnc2c(c1)ccc1cccnc12,active: 5.01 µM and active: 5.8 µM,
NS(=O)(=O)c1ccc(NC(=O)CSc2nc(Nc3ccccc3)nc(N3CCOCC3)n2)cc1,"inconclusive: 31.6 µM [inhibitor, single point]",
Oc1ccc(Nc2ccc3ccccc3c2)cc1,,inactive: -8.13%
Cn1nnnc1SCCCNCc1ccccc1OCc1ccc(F)cc1,"inconclusive: 10 µM [inhibitor, partial curve, poor fit]",
CCN(C(=O)c1cn(C)c(=O)c2ccccc12)c1cccc(C)c1,,inactive: 13.9% [at 46.1 µM]
Cc1cccc(NS(=O)(=O)c2ccc3c(c2)CCN3C(=O)C2CC2)c1C,"inconclusive: 35.5 µM [inhibitor, single point]",
CC/C(=N\NC(=O)CSCc1ccccc1Cl)c1ccc2c(c1)OCCO2,"inconclusive: 5.62 µM [inhibitor, single point]",
